Record: PubChem BioAssay AID1259425 (University of Nebraska Medical Center, 2018)
The whole screen tested about 14,000 reagents; shown is a part drawn at random. Not all columns of the deposit are shown. Not given: the time to read-out.

Aim: 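Compare each knockdown with KSR1 silencing using changes in marker transcripts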 (primary screen)
Cells: HCT116 human colon cancer cells
Reagents: siRNA pool against human genes, 50 nM siRNA
Detection: 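After 50 nM siRNA pool, branched-DNA assay measures six marker transcripts per well, minus blank, normalised to the geometric mean of two housekeeping transcripts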
Direction: BNIP3L mRNA: higher = more BNIP3L transcript after knockdown; NDRG1 mRNA: higher = more NDRG1 transcript after knockdown

gene | BNIP3L mRNA, set 1 | NDRG1 mRNA, set 1
MED10 (GeneID 84246) | 0.126 | 0.529
WAPL (GeneID 23063) | 0.156 | 0.32
BIK (GeneID 638) | 0.0784 | 0.136
MTMR2 (GeneID 8898) | 0.114 | 0.119
NRIP1 (GeneID 8204) | 0.128 | 0.118
REXO2 (GeneID 25996) | 0.0788 | 0.223
PCDHGA9 (GeneID 56107) | 0.134 | 0.314
IRX1 (GeneID 79192) | 0.199 | 0.198
RIPOR1 (GeneID 79567) | 0.0704 | 0.506
TAS2R14 (GeneID 50840) | 0.15 | 0.11
RAD51C (GeneID 5889) | 0.0873 | 0.239
MTCL1 (GeneID 23255) | 0.136 | 0.43
RNASE3 (GeneID 6037) | 0.198 | 0.583
DYM (GeneID 54808) | 0.133 | 0.114
PRKAR1A (GeneID 5573) | 0.0567 | 0.128
UXS1 (GeneID 80146) | 0.0673 | 0.327
SNRPE (GeneID 6635) | 0.254 | 1.09
RAB24 (GeneID 53917) | 0.197 | 0.125
ZNF750 (GeneID 79755) | 0.0762 | 0.101
NAT2 (GeneID 10) | 0.103 | 0.184
